Reference: publication PMC5481773, “Structural insights into the function of ZRANB3 in replication stress response” (Nature Communications, 2017)
These are yes or no findings as the source states them, for the method shown. Some binding calls cover weakened binding; strength is not graded here.

Protein sequences, listed by entry. Tags and fused reporters are not part of them.
UniProt P12004: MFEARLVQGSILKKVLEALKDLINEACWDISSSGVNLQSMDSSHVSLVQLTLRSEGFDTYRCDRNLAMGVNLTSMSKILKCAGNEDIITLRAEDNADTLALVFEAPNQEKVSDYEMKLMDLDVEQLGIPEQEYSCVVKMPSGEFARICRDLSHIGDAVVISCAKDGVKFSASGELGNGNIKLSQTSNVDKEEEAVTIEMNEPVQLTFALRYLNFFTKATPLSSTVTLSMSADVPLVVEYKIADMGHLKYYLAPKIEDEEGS

Biological target: Proliferating Cell Nuclear Antigen (PCNA), untagged (human) (UniProt P12004)
Experiment: crystal structure; co-crystals of PCNA and the PIP peptide 511-532; conditions not stated; both purified

binding: binds
B1: ZRANB3 PIP box peptide 511-532 (peptide)
peptide: FTHFEKEKQHDIRSFFVPQPKK
